Results deposited as PubChem BioAssay AID1224826 (NIAID, 2016).
Here is one part, drawn at random, of about 17,000 reagents. About 1,110 of them (6.6%) count as active. 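Active means lowered or raised reporter signal; replicate intensities are raw and not normalised per plate.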 Entries without a mark were called inactive. Not all columns of the deposit are shown.

Assay: 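Knock-downs that raise or lower Tnf reporter signal after endotoxin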 (primary screen)
Cells: RAW264.7 G9 macrophages from mouse bearing reporters for p65 (GFP) and the Tnf promoter (mCherry)
Reagent: siRNA pool against mouse genes, 100 nM
Duration: 16 h of LPS stimulation, after 2 days of siRNA transfection
Treatment: bacterial lipopolysaccharide (Salmonella minnesota R595), 10 ng/ml
Read-out: 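Imaged Tnf reporter mCherry in nuclei, minus background, normalised per plate to the median and expressed as robust z-scores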
Direction: Tnf reporter robust z-score: higher = stronger Tnf promoter reporter signal after LPS
Active means: 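a well counts as active at a score of -1.3 or below (Tlr4 knock-down control median) or above 3 (raised signal); controls and wells holding fewer than 50 cells are excluded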
Meaning of the calls: active = Tnf reporter clearly lowered or raised; inactive = no clear change in Tnf reporter

For Zfp781a, the entry reads Tnf reporter robust z-score -0.22; fewer than 50 cells in well enough cells in well.
After knock-down of 2410002F23Rik, the screen gave fewer than 50 cells in well fewer than 50 cells per well; well left out of calls.
Silencing of Cytl1 came out at: Tnf reporter robust z-score 0.01; fewer than 50 cells in well enough cells in well.
Reg3g gave Tnf reporter robust z-score 1.63; fewer than 50 cells in well enough cells in well.

As entered above:
Under “Tnf reporter robust z-score”, Cytl1 has 0.01
Result of Zfp781a under “Tnf reporter robust z-score”: -0.22

Continued.
Mterf1a showed Tnf reporter robust z-score -0.04; fewer than 50 cells in well enough cells in well.
Depletion of Or10ab5 resulted in: Tnf reporter robust z-score 0.39; fewer than 50 cells in well enough cells in well.
After knock-down of Amy1, the record shows Tnf reporter robust z-score -0.6; fewer than 50 cells in well enough cells in well.
After knock-down of Anapc16 the results were Tnf reporter robust z-score 0.44; fewer than 50 cells in well enough cells in well.
After knock-down of Coq3, the record shows Tnf reporter robust z-score 0.04; fewer than 50 cells in well enough cells in well.
After knock-down of 1700088E04Rik, the screen gave Tnf reporter robust z-score -0.43; fewer than 50 cells in well enough cells in well.
For Azgp1, the entry reads Tnf reporter robust z-score 0.18; fewer than 50 cells in well enough cells in well.
Ptpn2 scored Tnf reporter robust z-score -0.36; fewer than 50 cells in well enough cells in well.
Silencing of B430209F14Rik resulted in: Tnf reporter robust z-score -1.19; fewer than 50 cells in well enough cells in well.
Silencing of Tiam1 came out at: Tnf reporter robust z-score -0.19; fewer than 50 cells in well enough cells in well.
